# Assay results taken from the supplement of paper PMC8728848.
# Some of the results follow.
# Tests used:
# Test in all cases: glycan array binding signal (z-score within array); higher = stronger binding
# Settings in all cases: glycan notation: IUPAC condensed, linker removed
# [1] = biological target: Gal(b1-4)GlcNAc(b1-2)[Gal(b1-4)GlcNAc(b1-6)]Man(a1-6)[GlcNAc(b1-4)][Gal(b1-4)GlcNAc(b1-2)Man(a1-3)]Man(b1-4)GlcNAc(b1-4)GlcNAc
# Summary of the method: (§1)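 The binding signal is a Z-score computed within each array. Data were drawn from 3228 arrays in the Consortium for Functional Glycomics database, restricted to those with a known protein sequence. Scores were averaged over arrays of the same protein sequence at different concentrations or buffers, and over linkers, and negative values can be taken as non-binding.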
# [2] = biological target: Gal(b1-4)GlcNAc(b1-2)[Gal(b1-4)GlcNAc(b1-6)]Man(a1-6)[GlcNAc(b1-4)][Gal(b1-4)GlcNAc(b1-2)[Gal(b1-4)GlcNAc(b1-4)]Man(a1-3)]Man(b1-4)GlcNAc(b1-4)[Fuc(a1-6)]GlcNAc
# Summary of the method: as §1
# [3] = biological target: Gal(b1-4)GlcNAc(b1-3)Gal(b1-3)GalNAc
# Summary of the method: as §1
# [4] = biological target: Gal(b1-4)GlcNAc(b1-3)Gal(b1-3)GlcNAc
# Summary of the method: as §1
# [5] = biological target: Gal(b1-4)GlcNAc(b1-3)Gal(b1-4)Glc
# Summary of the method: as §1
# [6] = biological target: Gal(b1-4)GlcNAc(b1-3)Gal(b1-4)GlcNAc
# Summary of the method: as §1
# [7] = biological target: Gal(b1-4)GlcNAc(b1-3)Gal(b1-4)GlcNAc(b1-2)Man(a1-3)[Gal(b1-4)GlcNAc(b1-3)Gal(b1-4)GlcNAc(b1-2)Man(a1-6)]Man(b1-4)GlcNAc(b1-4)GlcNAc
# Summary of the method: as §1
# [8] = biological target: Gal(b1-4)GlcNAc(b1-3)Gal(b1-4)GlcNAc(b1-2)Man(a1-3)[Gal(b1-4)GlcNAc(b1-3)Gal(b1-4)GlcNAc(b1-2)Man(a1-6)]Man(b1-4)GlcNAc(b1-4)[Fuc(a1-6)]GlcNAc
# Summary of the method: as §1
# [9] = biological target: Gal(b1-4)GlcNAc(b1-3)Gal(b1-4)GlcNAc(b1-2)[Gal(b1-4)GlcNAc(b1-3)Gal(b1-4)GlcNAc(b1-6)]Man(a1-6)[Gal(b1-4)GlcNAc(b1-3)Gal(b1-4)GlcNAc(b1-2)Man(a1-3)]Man(b1-4)GlcNAc(b1-4)GlcNAc
# Summary of the method: as §1
# [10] = biological target: Gal(b1-4)GlcNAc(b1-3)Gal(b1-4)GlcNAc(b1-2)[Gal(b1-4)GlcNAc(b1-3)Gal(b1-4)GlcNAc(b1-6)]Man(a1-6)[Gal(b1-4)GlcNAc(b1-3)Gal(b1-4)GlcNAc(b1-2)Man(a1-3)]Man(b1-4)GlcNAc(b1-4)[Fuc(a1-6)]GlcNAc
# Summary of the method: as §1
# [11] = biological target: Gal(b1-4)GlcNAc(b1-3)Gal(b1-4)GlcNAc(b1-3)Gal(b1-4)GlcNAc
# Summary of the method: as §1
# [12] = biological target: Gal(b1-4)GlcNAc(b1-3)Gal(b1-4)GlcNAc(b1-3)Gal(b1-4)GlcNAc(b1-2)Man(a1-3)[Gal(b1-4)GlcNAc(b1-3)Gal(b1-4)GlcNAc(b1-3)Gal(b1-4)GlcNAc(b1-2)Man(a1-6)]Man(b1-4)GlcNAc(b1-4)GlcNAc
# Summary of the method: as §1
# [13] = biological target: Gal(b1-4)GlcNAc(b1-3)Gal(b1-4)GlcNAc(b1-3)Gal(b1-4)GlcNAc(b1-2)Man(a1-3)[Gal(b1-4)GlcNAc(b1-3)Gal(b1-4)GlcNAc(b1-3)Gal(b1-4)GlcNAc(b1-2)Man(a1-6)]Man(b1-4)GlcNAc(b1-4)[Fuc(a1-6)]GlcNAc
# Summary of the method: as §1
# [14] = biological target: Gal(b1-4)GlcNAc(b1-3)Gal(b1-4)GlcNAc(b1-3)Gal(b1-4)GlcNAc(b1-2)[Gal(b1-4)GlcNAc(b1-3)Gal(b1-4)GlcNAc(b1-3)Gal(b1-4)GlcNAc(b1-6)]Man(a1-6)[Gal(b1-4)GlcNAc(b1-3)Gal(b1-4)GlcNAc(b1-3)Gal(b1-4)GlcNAc(b1-2)Man(a1-3)]Man(b1-4)GlcNAc(b1-4)[Fuc(a1-6)]GlcNAc
# Summary of the method: as §1
# [15] = biological target: Gal(b1-4)GlcNAc(b1-3)Gal(b1-4)GlcNAc(b1-3)Gal(b1-4)GlcNAc(b1-3)Gal(b1-4)GlcNAc(b1-2)Man(a1-3)[Gal(b1-4)GlcNAc(b1-3)Gal(b1-4)GlcNAc(b1-3)Gal(b1-4)GlcNAc(b1-3)Gal(b1-4)GlcNAc(b1-2)Man(a1-6)]Man(b1-4)GlcNAc(b1-4)GlcNAc
# Summary of the method: as §1
# [16] = biological target: Gal(b1-4)GlcNAc(b1-3)Gal(b1-4)GlcNAc(b1-3)Gal(b1-4)GlcNAc(b1-3)Gal(b1-4)GlcNAc(b1-2)Man(a1-3)[Gal(b1-4)GlcNAc(b1-3)Gal(b1-4)GlcNAc(b1-3)Gal(b1-4)GlcNAc(b1-3)Gal(b1-4)GlcNAc(b1-2)Man(a1-6)]Man(b1-4)GlcNAc(b1-4)[Fuc(a1-6)]GlcNAc
# Summary of the method: as §1
# [17] = biological target: Gal(b1-4)GlcNAc(b1-3)Gal(b1-4)GlcNAc(b1-3)Gal(b1-4)GlcNAc(b1-3)Gal(b1-4)GlcNAc(b1-2)[Gal(b1-4)GlcNAc(b1-3)Gal(b1-4)GlcNAc(b1-3)Gal(b1-4)GlcNAc(b1-3)Gal(b1-4)GlcNAc(b1-6)]Man(a1-6)[Gal(b1-4)GlcNAc(b1-3)Gal(b1-4)GlcNAc(b1-3)Gal(b1-4)GlcNAc(b1-3)Gal(b1-4)GlcNAc(b1-2)Man(a1-3)]Man(b1-4)GlcNAc(b1-4)[Fuc(a1-6)]GlcNAc
# Summary of the method: as §1
# [18] = biological target: Gal(b1-4)GlcNAc(b1-3)Gal(b1-4)GlcNAc(b1-3)Gal(b1-4)GlcNAc(b1-3)Gal(b1-4)GlcNAc(b1-3)Gal(b1-4)GlcNAc(b1-2)Man(a1-3)[Gal(b1-4)GlcNAc(b1-3)Gal(b1-4)GlcNAc(b1-3)Gal(b1-4)GlcNAc(b1-3)Gal(b1-4)GlcNAc(b1-3)Gal(b1-4)GlcNAc(b1-2)Man(a1-6)]Man(b1-4)GlcNAc(b1-4)GlcNAc
# Summary of the method: as §1
# [19] = biological target: Gal(b1-4)GlcNAc(b1-3)Gal(b1-4)GlcNAc(b1-3)Gal(b1-4)GlcNAc(b1-3)Gal(b1-4)GlcNAc(b1-3)Gal(b1-4)GlcNAc(b1-2)Man(a1-3)[Gal(b1-4)GlcNAc(b1-3)Gal(b1-4)GlcNAc(b1-3)Gal(b1-4)GlcNAc(b1-3)Gal(b1-4)GlcNAc(b1-3)Gal(b1-4)GlcNAc(b1-2)Man(a1-6)]Man(b1-4)GlcNAc(b1-4)[Fuc(a1-6)]GlcNAc
# Summary of the method: as §1
# [20] = biological target: Gal(b1-4)GlcNAc(b1-3)Gal(b1-4)GlcNAc(b1-3)Gal(b1-4)GlcNAc(b1-3)Gal(b1-4)GlcNAc(b1-3)Gal(b1-4)GlcNAc(b1-2)[Gal(b1-4)GlcNAc(b1-3)Gal(b1-4)GlcNAc(b1-3)Gal(b1-4)GlcNAc(b1-3)Gal(b1-4)GlcNAc(b1-3)Gal(b1-4)GlcNAc(b1-6)]Man(a1-6)[Gal(b1-4)GlcNAc(b1-3)Gal(b1-4)GlcNAc(b1-3)Gal(b1-4)GlcNAc(b1-3)Gal(b1-4)GlcNAc(b1-3)Gal(b1-4)GlcNAc(b1-2)Man(a1-3)]Man(b1-4)GlcNAc(b1-4)[Fuc(a1-6)]GlcNAc
# Summary of the method: as §1
# [21] = biological target: Gal(b1-4)GlcNAc(b1-3)Gal(b1-4)GlcNAc(b1-3)Gal(b1-4)GlcNAc(b1-3)Gal(b1-4)GlcNAc(b1-3)Gal(b1-4)GlcNAc(b1-3)Gal(b1-4)GlcNAc(b1-2)Man(a1-3)[Gal(b1-4)GlcNAc(b1-3)Gal(b1-4)GlcNAc(b1-3)Gal(b1-4)GlcNAc(b1-3)Gal(b1-4)GlcNAc(b1-3)Gal(b1-4)GlcNAc(b1-3)Gal(b1-4)GlcNAc(b1-2)Man(a1-6)]Man(b1-4)GlcNAc(b1-4)GlcNAc
# Summary of the method: as §1
# [22] = biological target: Gal(b1-4)GlcNAc(b1-3)Gal(b1-4)GlcNAc(b1-3)GalNAc
# Summary of the method: as §1
# [23] = biological target: Gal(b1-4)GlcNAc(b1-3)Gal(b1-4)GlcNAc(b1-3)[Gal(b1-4)GlcNAc(b1-3)Gal(b1-4)GlcNAc(b1-6)]GalNAc
# Summary of the method: as §1
# [24] = biological target: Gal(b1-4)GlcNAc(b1-3)Gal(b1-4)GlcNAc(b1-6)[Gal(b1-3)]GalNAc
# Summary of the method: as §1
# [25] = biological target: Gal(b1-4)GlcNAc(b1-3)Gal(b1-4)[Fuc(a1-3)]GlcNAc(b1-3)Gal(b1-4)[Fuc(a1-3)]GlcNAc
# Summary of the method: as §1
# [26] = biological target: Gal(b1-4)GlcNAc(b1-3)GalNAc
# Summary of the method: as §1
# [27] = biological target: Gal(b1-4)GlcNAc(b1-3)[Fuc(a1-3)GlcNAc(b1-6)]Gal(b1-4)Glc
# Summary of the method: as §1
# [28] = biological target: Gal(b1-4)GlcNAc(b1-3)[Gal(b1-4)GlcNAc(b1-6)]Gal(b1-4)GlcNAc
# Summary of the method: as §1
# [29] = biological target: Gal(b1-4)GlcNAc(b1-3)[GlcNAc(b1-6)]Gal(b1-4)GlcNAc
# Summary of the method: as §1
# [30] = biological target: Gal(b1-4)GlcNAc(b1-6)Gal(b1-4)GlcNAc
# Summary of the method: as §1
# [31] = biological target: Gal(b1-4)GlcNAc(b1-6)GalNAc
# Summary of the method: as §1
# [32] = biological target: Gal(b1-4)GlcNAc(b1-6)[Gal(b1-3)]GalNAc
# Summary of the method: as §1
# [33] = biological target: Gal(b1-4)GlcNAc(b1-6)[Gal(b1-4)GlcNAc(b1-3)]GalNAc
# Summary of the method: as §1
# Gal(b1-4)GlcNAc6P = biological target: Gal(b1-4)GlcNAc6P
# Summary of the method: as §1
# Gal(b1-6)Gal = biological target: Gal(b1-6)Gal
# Summary of the method: as §1
# Gal3S(b1-3)GalNAc = biological target: Gal3S(b1-3)GalNAc
# Summary of the method: as §1
# Gal3S(b1-3)GlcNAc = biological target: Gal3S(b1-3)GlcNAc
# Summary of the method: as §1
# [34] = biological target: Gal3S(b1-3)[Fuc(a1-4)]GlcNAc
# Summary of the method: as §1
binder,measurement,setting,value
GS7807G-bfa-506-18-506 (Bacteroides fragilis) (protein) ASCDKFDEINTDPDATTKVTSSLLATGLLLDITSSSASKSFIYDELLAKQMAWGESMEDYQYNVFGRSGFGGYTTLINAQKMVESVSDDNVNAYDGLAHFIKAYKIFYMSMEMGDLPYEEALQGELGLVRPKYNTQKEVMNFILSDLETAYELFSTAKDFDGDPILGGSISKWKKATTAFQLKVLMHLSKKESDADLKVKERFARIVASGSLMESNEDNLQMKYADKANTVYPFHNTNTKHAGYAMLSTMLIDKFKATGDIRMFYYAKPAKAKLNEGVTADSWDAYIGTDPSLPFEQIEKAYATEQYSGFNARYTDYPSGEPVVRLGYAEQNFILAEAAVRGWISGDASAYYKKAIRAHMEFIASNTPDEEVYHHGHPITEEAIAAFLETPAIQLSGEKEEDIEKILTQRYLASFMQHPYDVYYDYRRTGYPVLPINPATNRNTMNDRLPMRWMYPKSESDYNLEHQNEALERQFGGVDDVNKLMWILQ,glycan array binding signal (z-score),[1],0.01
same,glycan array binding signal (z-score),[2],-0.315
same,glycan array binding signal (z-score),[3],1.48
same,glycan array binding signal (z-score),[4],0.201
same,glycan array binding signal (z-score),[5],0.624
same,glycan array binding signal (z-score),[6],-0.301
same,glycan array binding signal (z-score),[7],0.789
same,glycan array binding signal (z-score),[8],2.64
same,glycan array binding signal (z-score),[9],1.76
same,glycan array binding signal (z-score),[10],1.31
same,glycan array binding signal (z-score),[11],0.029
same,glycan array binding signal (z-score),[12],2.64
same,glycan array binding signal (z-score),[13],5.99
same,glycan array binding signal (z-score),[14],2.78
same,glycan array binding signal (z-score),[15],2.25
same,glycan array binding signal (z-score),[16],2.3
same,glycan array binding signal (z-score),[17],1.5
same,glycan array binding signal (z-score),[18],0.719
same,glycan array binding signal (z-score),[19],1.55
same,glycan array binding signal (z-score),[20],4.67
same,glycan array binding signal (z-score),[21],2.54
same,glycan array binding signal (z-score),[22],0.91
same,glycan array binding signal (z-score),[23],0.328
same,glycan array binding signal (z-score),[24],0.824
same,glycan array binding signal (z-score),[25],1.29
same,glycan array binding signal (z-score),[26],-0.443
same,glycan array binding signal (z-score),[27],-0.29
same,glycan array binding signal (z-score),[28],-0.844
same,glycan array binding signal (z-score),[29],0.009
same,glycan array binding signal (z-score),[30],-0.133
same,glycan array binding signal (z-score),[31],1.51
same,glycan array binding signal (z-score),[32],1.48
same,glycan array binding signal (z-score),[33],1.86
same,glycan array binding signal (z-score),Gal(b1-4)GlcNAc6P,-0.826
same,glycan array binding signal (z-score),Gal(b1-6)Gal,1.39
same,glycan array binding signal (z-score),Gal3S(b1-3)GalNAc,-0.369
same,glycan array binding signal (z-score),Gal3S(b1-3)GlcNAc,-0.195
same,glycan array binding signal (z-score),[34],-0.435
